Results reported in publication PMC9663298.

By UniProt entry, the sequences of proteins in these tests, tags left out. Where a name states a change or a piece, a line headed by the entry shows the natural chain unless it says otherwise.
UniProt Q9NZH8: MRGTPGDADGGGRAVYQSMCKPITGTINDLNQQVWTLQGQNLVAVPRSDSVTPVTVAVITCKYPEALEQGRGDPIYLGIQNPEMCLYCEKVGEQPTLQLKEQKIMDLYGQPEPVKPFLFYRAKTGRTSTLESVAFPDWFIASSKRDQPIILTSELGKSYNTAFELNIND

T1: GFP–IL-36R (not stated (human or mouse cDNA cloned)) (UniProt Q9HB29)
T1 sequence: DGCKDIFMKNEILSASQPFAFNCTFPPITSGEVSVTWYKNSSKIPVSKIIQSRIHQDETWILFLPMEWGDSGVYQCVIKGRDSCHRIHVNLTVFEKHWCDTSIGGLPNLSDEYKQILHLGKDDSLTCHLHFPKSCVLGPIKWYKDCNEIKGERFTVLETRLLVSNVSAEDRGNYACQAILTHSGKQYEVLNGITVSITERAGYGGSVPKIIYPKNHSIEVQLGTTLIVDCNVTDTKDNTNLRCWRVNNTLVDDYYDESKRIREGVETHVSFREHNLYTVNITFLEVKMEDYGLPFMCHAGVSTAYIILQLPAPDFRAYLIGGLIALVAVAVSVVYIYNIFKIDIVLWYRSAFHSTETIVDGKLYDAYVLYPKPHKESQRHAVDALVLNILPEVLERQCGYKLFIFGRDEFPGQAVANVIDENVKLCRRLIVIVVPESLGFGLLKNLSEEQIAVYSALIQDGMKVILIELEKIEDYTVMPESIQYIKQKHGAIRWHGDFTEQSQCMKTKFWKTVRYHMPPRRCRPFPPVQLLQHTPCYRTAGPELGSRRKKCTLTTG


Experiments:
[1] = molecular target: T1, GFP–IL-36R (not stated (human or mouse cDNA cloned)); experiment: flow cytometry on cells; HeLa cells transfected with GFP–IL-36R with or without sIL-36R, 100 ng/ml His-tagged IL-36γ for 30 min, stained with phycoerythrin–anti-His antibody; only the binder purified
[2] = molecular target: His-tagged IL-36γ (UniProt Q9NZH8); experiment: pull-down; lysates (RIPA buffer) of HeLa cells transfected with indicated doses of Flag-IL36R or Flag-sIL36R plasmids, 1 μg His-tagged IL-36γ added for 4 h, pulled down by anti-His beads, anti-Flag blot; only the target purified

Row | Molecule | binding [1] | binding [2]
1 | His-tagged IL-36γ (from UniProt Q9NZH8) (ligand) | binds | –
2 | Flag-tagged IL-36 receptor (IL-36R) (receptor, UniProt Q9HB29 20-575) DGCKDIFMKNEILSASQPFAFNCTFPPITSGEVSVTWYKNSSKIPVSKIIQSRIHQDETWILFLPMEWGDSGVYQCVIKGRDSCHRIHVNLTVFEKHWCDTSIGGLPNLSDEYKQILHLGKDDSLTCHLHFPKSCVLGPIKWYKDCNEIKGERFTVLETRLLVSNVSAEDRGNYACQAILTHSGKQYEVLNGITVSITERAGYGGSVPKIIYPKNHSIEVQLGTTLIVDCNVTDTKDNTNLRCWRVNNTLVDDYYDESKRIREGVETHVSFREHNLYTVNITFLEVKMEDYGLPFMCHAGVSTAYIILQLPAPDFRAYLIGGLIALVAVAVSVVYIYNIFKIDIVLWYRSAFHSTETIVDGKLYDAYVLYPKPHKESQRHAVDALVLNILPEVLERQCGYKLFIFGRDEFPGQAVANVIDENVKLCRRLIVIVVPESLGFGLLKNLSEEQIAVYSALIQDGMKVILIELEKIEDYTVMPESIQYIKQKHGAIRWHGDFTEQSQCMKTKFWKTVRYHMPPRRCRPFPPVQLLQHTPCYRTAGPELGSRRKKCTLTTG | – | binds

No constants are given. Whether binding was seen depends on the method and setting. A result given as binding can be weak or reduced; the word gives no strength. Tags and fused reporters may be left off the sequences shown. For some assays here: In cells and extracts the contact can be indirect.
